For this assay, the system named is Candida albicans. Briefly: Antifungal activity against Candida albicans Y-1200-NIH at 100 ug after 24 hr by agar well diffusion method. It counts as functional, organism-based. (In general: A growth-free zone around the sample is the usual read-out of agar diffusion tests.)

Drawing on ChEMBL document CHEMBL3046942, “Synthesis and biological activity of new cycloalkylthiophene-Schiff bases and their Cr(III) and Zn(II) complexes” (2010), this text covers inhibition zone (IZ) for 1 sequence.

As for NYSTATIN, the inhibition zone (IZ) worked out at 20 mm.
